In PubChem BioAssay AID504467 (National Center for Advancing Translational Sciences (NCATS), 2011):
About 7,700 (2.3%) of roughly 330,000 compounds were called active. Inconclusive results, whose numbers are uncertain, are shown with a selection of clear calls. Calls follow the shape of the dose curve; as a rule, active = well fitted inhibition curve with a large enough effect; inconclusive = small, poorly fitted or top-dose-only effect, or effect the other way; inactive = flat fitted curve, though single readings scatter. Where the call is inconclusive, the potency comes from a doubtful curve fit.

Assay: qHTS screen for small molecules that inhibit ELG1-dependent DNA repair in human embryonic kidney (HEK293T) cells expressing luciferase-tagged ELG1; also: nearly all actives have a fitted effect of over 55% in size
Settings: HEK293T ELG1-luciferase reporter, luminescence, 16 h, DNA damage induced by 5-fluorouridine; series mostly up to 46.1 µM
Procedure, shortened: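 HEK293T cells expressing luciferase-tagged ELG1 (2,000/well) received 5-Fluorouridine plus compound or DMSO for 16 hr at 37 °C. Luciferase was read by ONE-Glo luminescence after 30 min at room temperature.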
Potency is read from the fitted curve at half-maximal effect.

Row | SMILES | Potency
1 | CCCC(=O)Nc1nc(-c2ccc(OC)cc2)cs1 | inconclusive: 10.3 µM [activator, partial curve]
2 | O=C1/C(=C\c2ccco2)SC(=S)N1c1ccc(O)cc1 | inactive
3 | Cc1nc(C)c(-c2ccc(SCC(=O)Nc3cccc(F)c3)nn2)s1 | inconclusive: 6.51 µM [inhibitor, partial curve, poor fit]
4 | O=S(=O)(Nc1cccc2c1ccc1cccn12)c1cccs1 | inactive
5 | Cc1ccc(S(=O)(=O)C(C#N)c2nc3ccccc3nc2N2CCCCC2)cc1 (stereo unspecified) | inactive
6 | COC(=O)c1cccc(NC(=O)C2COc3ccccc3O2)c1C (stereo unspecified) | inconclusive: 16.4 µM [activator, single point]
7 | O=C1C=C(c2ccc3ccccc3c2)C[C@@H](c2ccc(F)cc2)C1 | inconclusive: 20.6 µM [activator, single point]
8 | Cc1cc2ccccc2nc1SCC(=O)NC1CCCCC1 | inconclusive: 4.11 µM [activator, partial curve]
9 | O=C(/C=C/c1ccc(-c2ccc(F)cc2)o1)N1CCCC1 | inconclusive: 13 µM [activator, partial curve]
10 | COc1cc2c(cc1OC)CN(CC(=O)NC(=O)NCc1ccccc1)CC2 | inconclusive: 29.1 µM [inhibitor, single point]
11 | Cc1ccc2oc(-c3cccc(NC(=O)c4ccc(Br)o4)c3)nc2c1 | inconclusive: 23.1 µM [activator, single point]
12 | O=C(Nc1nc(-c2ccncc2)cs1)c1ccco1 | inconclusive: 18.4 µM [activator, partial curve, poor fit]
13 | O=S(=O)(c1cccs1)N1CN(C2CCCCC2)c2nc3ccccc3nc21 | inconclusive: 29.1 µM [activator, single point]
14 | O=C(N1CCOCC1)N1CCC(c2nc(-c3ccc(S(=O)(=O)N4CCOCC4)cc3)no2)CC1 | inactive
15 | Cc1nc2ccc(Oc3ccccc3)cc2s1 | inconclusive: 22.4 µM [activator, single point]
16 | O=C(CC(Nc1ccccc1)c1ccc(F)cc1)c1ccccc1 (stereo unspecified) | inconclusive: 25.9 µM [activator, single point]
17 | COc1ccc(-c2csc(NC(=O)CSC(C)C(=O)Nc3cc(C)on3)n2)cc1OC (stereo unspecified) | inconclusive: 20.6 µM [inhibitor, single point]
18 | CCCCCC(=O)N1CC2(CC(c3cccc(NC(=O)COc4ccc(Cl)cc4)c3)=NO2)C[C@@H]1C(N)=O (stereo partly specified) | inconclusive: 23.1 µM [inhibitor, single point]
19 | COc1ccc(-n2cc(-c3ccccc3)c3c(NCCOCCO)ncnc32)cc1 | inconclusive: 29.1 µM [inhibitor, single point]
20 | CCCCN1C(=O)/C(=C2\SC(N3CCOCC3)=NC2=O)c2ccccc21 | inconclusive: 23.1 µM [activator, single point]
21 | C=CCOC(=O)c1ccc(-n2cncn2)nc1 | inconclusive: 18.4 µM [activator, single point]
22 | N#C/C(=C\c1cccc(Br)c1)C(=O)N1CCCCC1 | inconclusive: 32.6 µM [inhibitor, single point]
23 | O=C(CCCn1c(=S)[nH]c2cc3c(cc2c1=O)OCO3)NC1CC1 | inactive
24 | CCOc1ccccc1OCCn1ncc2ccc(OC)c(OC)c2c1=O | inconclusive: 14.6 µM [inhibitor, partial curve, poor fit]

Row | SMILES | Potency
25 | CCCCCCNC(=O)c1c(O)c2ccccc2[nH]c1=O | inconclusive: 11.2 µM [activator, partial curve, poor fit]
26 | O=C(c1ccc(COCC(F)(F)F)cc1)N1CCN(c2ccccn2)CC1 | inconclusive: 18.3 µM [activator, partial curve]
27 | CCn1c(COC(=O)CNC(=O)c2ccccc2)nc2cc(S(=O)(=O)N(C)C)ccc21 | inactive
28 | Cc1ccccc1S(=O)(=O)Cc1ccc(C(=O)N2CCN(c3ccc(F)cc3)CC2)o1 | inconclusive: 25.9 µM [inhibitor, single point]
29 | Nc1nsnc1C(=O)NCCO | inconclusive: 35.5 µM [inhibitor, single point]
30 | CCCCn1cnc2c(sc3nc4c(cc32)CSC(C)(C)C4)c1=O | inconclusive: 1.64 µM [activator, full curve]
31 | Cc1ccccc1-c1ncc(CN2CCC(CO)(CCCc3ccccc3)CC2)cn1 | inconclusive: 29.1 µM [inhibitor, single point]
32 | O=C(Nc1ccc2c(c1)OCCO2)C1CCN(C(=O)c2ccc(F)cc2)CC1 | inconclusive: 16.4 µM [activator, partial curve]
33 | COc1ccc(Nc2nc3cc(C)ccc3cc2C#N)c(OC)c1 | inactive
34 | CCOc1ccc(NC2c3ccccc3C(=O)N2c2ccc(Cl)cn2)cc1 (stereo unspecified) | inconclusive: 23.1 µM [activator, partial curve, poor fit]
35 | Cc1cccc(C)c1NC(=O)CN(C)C(=O)CN1C(=O)NC2(CCCC2)C1=O | inactive
36 | COc1ccc(-c2cn3nc4c(nc3n2)CCCC4)cc1 | inconclusive: 0.366 µM [activator, full curve]
37 | Cc1nc(NCC2CCCO2)c2oc3ccccc3c2n1 (stereo unspecified) | inactive
38 | O=Cc1ccc(OCc2cccc(C(F)(F)F)c2)cc1O | inactive
39 | O=c1[nH]c(=O)n(Cc2ccco2)c2c1C(C(F)(F)F)(C(F)(F)F)N=C(CCc1ccccc1)N2 | inconclusive: 25.1 µM [inhibitor, single point]
40 | COc1ccc(NC(=O)c2ccccn2)cc1 | inconclusive: 1.3 µM [activator, partial curve]
41 | CS/C(N)=N/N=C/c1ccc2c(c1)OCO2 | inconclusive: 13 µM [activator, partial curve]
42 | COc1ccc(-c2cc(-c3cc(F)ccc3O)[nH]n2)cc1OC | inconclusive: 12.6 µM [activator, partial curve, poor fit]
43 | CN(C)S(=O)(=O)c1ccc(C(=O)Nc2ccccc2SCCC#N)cc1 | inactive
44 | C=CCN(CC=C)C(=S)Nc1ccc2nsnc2c1 | inactive
45 | Cc1nn(CC(=O)NCCCN2CCN(Cc3ccccc3)CC2)c(=O)c2cc(-c3ccccc3)nn12 | inactive
46 | NS(=O)(=O)c1ccc(NC(=O)c2cccc3ccccc23)cc1 | inactive
47 | Oc1ccc(N2CCN(C(=S)NCc3ccccc3)CC2)cc1 | inconclusive: 8.2 µM [inhibitor, partial curve]
48 | Cc1ccc(N(CC(=O)N/N=C/c2cccc(Br)c2)S(C)(=O)=O)cc1 | inactive

Look-ups from the results shown.
`O=C(/C=C/c1ccc(-c2ccc(F)cc2)o1)N1CCCC1` – Potency: inconclusive: 13 µM [activator, partial curve]
`Nc1nsnc1C(=O)NCCO` – Potency: inconclusive: 35.5 µM [inhibitor, single point]

More structures:

Row | SMILES | Potency
49 | Cc1cc(C)cc(NC(=O)C(Nc2ccccc2)c2ccccc2)c1 (stereo unspecified) | inconclusive: 18.4 µM [activator, partial curve, poor fit]
50 | CC(C)c1ccc(NC(=O)NCc2ccccn2)cc1 | inconclusive: 11.6 µM [activator, partial curve]
51 | CNC(=S)NCc1ccc2[nH]c3c(c2c1)CCCC3 | inactive
52 | Cc1cc(C)cc(NS(=O)(=O)c2cccs2)c1 | inactive
53 | Cc1cnc(C(=O)Nc2nnc(C)s2)cn1 | inconclusive: 16.4 µM [activator, single point]
54 | Cc1[nH]n(-c2ccccc2)c(=O)c1N=Nc1ccccc1 | inconclusive: 9.2 µM [activator, partial curve]
55 | COc1ccc(N=c2oc3c(OC)cccc3cc2C(=O)NCc2ccco2)cc1OC | inconclusive: 0.82 µM [inhibitor, full curve]
56 | CCN(CC)CCNC(=O)c1cc(-c2ccc(Br)s2)nc2ccccc12 | inconclusive: 29.1 µM [activator, single point]
57 | Fc1ccc(CSc2nc3ncccc3[nH]2)cc1 | inconclusive: 11.2 µM [activator, partial curve]
58 | CC(=O)Nc1cccc(-c2nc3ccc(NC(C)=O)cc3[nH]2)c1 | inactive
59 | COc1ccc(-c2nn(-c3ccccc3)cc2/C=N/NC(=O)c2cccc(S(=O)(=O)Nc3ccccc3OC)c2)cc1 | inactive
60 | COc1ccccc1N1CCN(C(=O)c2ccc(Cl)c(S(=O)(=O)N3CCCC3)c2)CC1 | inconclusive: 25.9 µM [inhibitor, single point]
61 | Cc1cc(C)n(CC(=O)NCc2cc(-c3nn(C)c(=O)c4ccccc34)ccc2C)n1 | inconclusive: 20.6 µM [inhibitor, partial curve, poor fit]
62 | O=c1c2cc(Br)ccc2nc2n1CCCCC2 | inconclusive: 12.6 µM [activator, single point]
63 | Cc1ccc(C(C(=O)NC(C)(C)C)N(Cc2ccccc2)C(=O)c2snc(C(N)=O)c2N)o1 (stereo unspecified) | inconclusive: 23.1 µM [inhibitor, single point]
64 | NC(=O)CNC(=O)[C@@H]1CC2(CC(c3ccc(Cl)cc3)=NO2)CN1C(=O)c1ccc(Br)cc1 (stereo partly specified) | inactive
65 | O=C(c1ccco1)N1CCN(c2ncnc3scc(-c4ccccc4)c23)CC1 | inconclusive: 20.6 µM [inhibitor, single point]
66 | O=C(NCc1cccnc1)Nc1cccc(Cl)c1 | inconclusive: 18.3 µM [activator, single point]
67 | CC(NC(=O)C(C)N1CCN(S(=O)(=O)c2ccccc2)CC1)c1ccccc1 (stereo unspecified) | inactive
68 | CCCCCCCCCCCCCCCC[n+]1ccc(C(N)=O)cc1 | inactive
69 | O=c1oc(-c2ccco2)nc2sc3c(c12)CCCC3 | inconclusive: 9.2 µM [activator, partial curve]
70 | CCC(C)[C@H](NC(=O)NCCCOC(C)C)C(=O)OC (stereo partly specified) | inconclusive: 25.9 µM [activator, partial curve, poor fit]
71 | CCOC(=O)C1=C(C)NC(C)=C(C(=O)OCC)C1/C=C/c1ccccc1OC | inconclusive: 23.1 µM [inhibitor, partial curve]

16 of the compounds above, as comma-separated lines:
Row,SMILES,Potency
2,O=C1/C(=C\c2ccco2)SC(=S)N1c1ccc(O)cc1,inactive
5,Cc1ccc(S(=O)(=O)C(C#N)c2nc3ccccc3nc2N2CCCCC2)cc1 (stereo unspecified),inactive
8,Cc1cc2ccccc2nc1SCC(=O)NC1CCCCC1,"inconclusive: 4.11 µM [activator, partial curve]"
13,O=S(=O)(c1cccs1)N1CN(C2CCCCC2)c2nc3ccccc3nc21,"inconclusive: 29.1 µM [activator, single point]"
14,O=C(N1CCOCC1)N1CCC(c2nc(-c3ccc(S(=O)(=O)N4CCOCC4)cc3)no2)CC1,inactive
17,COc1ccc(-c2csc(NC(=O)CSC(C)C(=O)Nc3cc(C)on3)n2)cc1OC (stereo unspecified),"inconclusive: 20.6 µM [inhibitor, single point]"
20,CCCCN1C(=O)/C(=C2\SC(N3CCOCC3)=NC2=O)c2ccccc21,"inconclusive: 23.1 µM [activator, single point]"
21,C=CCOC(=O)c1ccc(-n2cncn2)nc1,"inconclusive: 18.4 µM [activator, single point]"
25,CCCCCCNC(=O)c1c(O)c2ccccc2[nH]c1=O,"inconclusive: 11.2 µM [activator, partial curve, poor fit]"
26,O=C(c1ccc(COCC(F)(F)F)cc1)N1CCN(c2ccccn2)CC1,"inconclusive: 18.3 µM [activator, partial curve]"
38,O=Cc1ccc(OCc2cccc(C(F)(F)F)c2)cc1O,inactive
40,COc1ccc(NC(=O)c2ccccn2)cc1,"inconclusive: 1.3 µM [activator, partial curve]"
51,CNC(=S)NCc1ccc2[nH]c3c(c2c1)CCCC3,inactive
67,CC(NC(=O)C(C)N1CCN(S(=O)(=O)c2ccccc2)CC1)c1ccccc1 (stereo unspecified),inactive
68,CCCCCCCCCCCCCCCC[n+]1ccc(C(N)=O)cc1,inactive
70,CCC(C)[C@H](NC(=O)NCCCOC(C)C)C(=O)OC (stereo partly specified),"inconclusive: 25.9 µM [activator, partial curve, poor fit]"
